This is an account of results in US20200338112A1, “METHODS AND MATERIALS FOR TREATING CANCER” (Mayo Foundation for Medical Education and Research, priority 2018, published 2020).

Sequences of proteins named here, by UniProt entry; tags and fusion partners are left off. A change or cut given only in a name is not applied to a line headed by its entry. Residues count along the entry.
UniProt Q9NZQ7: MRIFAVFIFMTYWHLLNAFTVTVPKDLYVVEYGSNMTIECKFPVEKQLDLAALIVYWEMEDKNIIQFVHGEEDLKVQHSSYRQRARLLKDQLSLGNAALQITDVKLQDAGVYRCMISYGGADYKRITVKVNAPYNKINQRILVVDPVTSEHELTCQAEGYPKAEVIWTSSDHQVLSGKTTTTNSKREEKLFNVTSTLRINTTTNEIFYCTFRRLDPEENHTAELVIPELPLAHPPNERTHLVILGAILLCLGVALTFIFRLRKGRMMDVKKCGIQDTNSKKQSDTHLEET
programmed death-ligand 1 (PD-L1): residues 19-290 of Q9NZQ7
UniProt Q15717: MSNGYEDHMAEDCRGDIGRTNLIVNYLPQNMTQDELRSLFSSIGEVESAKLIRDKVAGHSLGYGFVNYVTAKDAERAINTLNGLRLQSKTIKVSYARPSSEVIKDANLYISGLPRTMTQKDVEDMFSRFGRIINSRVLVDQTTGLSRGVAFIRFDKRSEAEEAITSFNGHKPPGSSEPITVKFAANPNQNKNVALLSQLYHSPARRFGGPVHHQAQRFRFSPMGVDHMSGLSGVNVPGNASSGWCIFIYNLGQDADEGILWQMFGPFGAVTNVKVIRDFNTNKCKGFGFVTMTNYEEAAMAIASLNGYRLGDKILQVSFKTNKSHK
human antigen R (HuR): residues 2-326 of Q15717

For test [1], the target named is programmed death-ligand 1 (PD-L1) (UniProt Q9NZQ7). Put plainly: co-IP with HuR truncations, western blot. For orientation: In western blotting, separated proteins are transferred to a membrane and probed.
Test [2] addresses human antigen R (HuR) (human) (UniProt Q15717). Briefly: co-IP with PD-L1 truncations, western blot.

No constants are given. Whether binding was seen depends on the method and setting. In cells and extracts the contact can be indirect. Some results given as binding are weak or reduced against the parent protein; the word gives no strength.

As for “HuR truncation RRM2+3 (from UniProt Q15717 106-326)”, the binding entry in test [1] is reported as “binds”.
With “PD-L1 truncation containing the transmembrane domain plus cytoplasmic domain (T+C) (from UniProt Q9NZQ7 239-290)”, the binding entry in test [2] is given as “binds”.
